The values that follow come from paper doi:10.1101/107813.

This assay deals with sirtuin 3 (SIRT3) (human (endogenous in HepG2)). As to the kind of experiment: co-IP.

These are yes or no findings as the source states them, for the method shown. In cells and extracts the contact can be indirect. A result given as binding can be weak or reduced; the word gives no strength.

B1: mitochondrial manganese superoxide dismutase (SOD2) (enzyme, UniProt P04179 25-222)
chain: KHSLPDLPYDYGALEPHINAQIMQLHHSKHHAAYVNNLNVTEEKYQEALAKGDVTAQIALQPALKFNGGGHINHSIFWTNLSPNGGGEPKGELLEAIKRDFGSFDKFKEKLTAASVGVQGSGWGWLGFNKERGHLQIAACPNQDPLQGTTGLIPLLGIDVWEHAYYLQYKNVRPDYLKAIWNVINWENVTERYMACKK
For B1, the binding result is recorded as “binds”.
